# From patent US20160046678A1 (ZYNGENIA, published 2016)
# No constants are given. Whether binding was seen depends on the method and setting. Some results given as binding are weak or reduced against the parent protein; the word gives no strength.
# T1: Angiopoietin-2 (Ang2) (human, UniProt O15123 19-496, biotin label in Examples 22-24)
# T1 construct: also called rhAng2; recombinant Ang2
# T1 sequence (looked up): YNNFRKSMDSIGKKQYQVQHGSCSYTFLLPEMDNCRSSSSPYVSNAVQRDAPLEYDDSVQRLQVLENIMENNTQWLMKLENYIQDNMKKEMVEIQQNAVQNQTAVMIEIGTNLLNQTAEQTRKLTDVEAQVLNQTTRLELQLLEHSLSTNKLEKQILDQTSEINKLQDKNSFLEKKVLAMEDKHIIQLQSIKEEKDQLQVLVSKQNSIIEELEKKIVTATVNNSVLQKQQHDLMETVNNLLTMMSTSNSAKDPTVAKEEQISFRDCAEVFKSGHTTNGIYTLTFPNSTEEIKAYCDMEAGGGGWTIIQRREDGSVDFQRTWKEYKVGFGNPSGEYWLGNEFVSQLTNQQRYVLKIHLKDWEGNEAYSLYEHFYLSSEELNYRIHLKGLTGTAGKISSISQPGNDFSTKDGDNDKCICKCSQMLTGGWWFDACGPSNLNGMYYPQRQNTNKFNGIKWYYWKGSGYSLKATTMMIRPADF
# Biological target: T1, Angiopoietin-2 (Ang2)
# Assay: Example 48, method not detailed
row,Binder,binding
1,YGNECYFFPNPPHCYHRD [ANG906],binds
2,DTLDCYYFPNPPHCYSSQ [ANG907],binds
3,QWNPHYHCFFYPNPPHCY [ANG909],binds
4,TSLDCYFYPNPPHCYETP [ANG911],binds
5,KWARGMECFFYPNPPDCY [ANG912],binds
6,RLVDCYYYPNPLHCYDRS [ANG913],binds
7,THKDCYFFPNPPHCYTKT [ANG914],binds
8,PLKDCYFYPNPLHCYLVS [ANG915],binds
9,APHILQDCYFYPNPRHCY [ANG916],binds
10,LSILYPSCYFYPNPEHCQ [ANG917],binds
11,ECYFYPNPPECYNVDDQA [ANG918],binds
12,ECYFYPNPPHCYVLKQQI [ANG919],binds
13,ISTRNTDCYFYPNPPHCY [ANG920],binds
14,FYYDCFFYPNPPNCYNSF [ANG923],binds
15,FSHLEQDCYFYPNPPHCY [ANG924],binds
16,SPVDCYFYPNPPHCYDWD [ANG925],binds
17,PYQLMTDCYFFPNPPHCY [ANG926],binds
18,ESFQNMDCYFYPNPPYCY [ANG929],binds
19,PRKSFHDCYFYPNPPHCY [ANG930],binds
20,SWPNHMECYFFPNPPHCY [ANG932],binds
21,KSVGNTDCYFFPNPPHCY [ANG934],binds
22,TIYDCYIYPNPRHCYKLN [ANG935],binds
23,ECYFYPNPPHCYHALTSK [ANG936],binds
24,FYQSWVDCYFYPNPPHCS [ANG937],binds
25,YALDLGGCYWFPNPPHCY [ANG939],binds
26,SIFLSLDCYFFPNPSNSL [ANG940],binds
27,GVYSFDQCYVFPNPPDCY [ANG942],binds
28,VVLHYGDCYYYPNPPYCY [ANG943],binds
